From publication PMC11065945
No constants are given. Whether binding was seen depends on the method and setting. Tags and fused reporters may be left off the sequences shown.

How the values were obtained:
[1] = biological target: Mycobacterium tuberculosis H37Rv Rv2231c (histidinol phosphate aminotransferase, HspAT), purified recombinant protein (Mycobacterium tuberculosis H37Rv) (UniProt P9WQ89); test: dynamic light scattering; Xtal concept spectrosize-300, protein at 1.0 mg/ml, passed through a 0.2 µm PVDF filter; hydrodynamic radius; both purified
[2] = biological target: Mycobacterium tuberculosis H37Rv Rv2231c (histidinol phosphate aminotransferase, HspAT), purified recombinant protein (Mycobacterium tuberculosis H37Rv) (UniProt P9WQ89); test: SEC; both purified

B1: Mycobacterium tuberculosis H37Rv Rv2231c (histidinol phosphate aminotransferase, HspAT), purified recombinant protein (enzyme, UniProt P9WQ89 1-364)
chain: MLWILGPHTGPLLFDAVASLDTSPLAAARYHGDQDVAPGVLDFAVNVRHDRPPEWLVRQLAALLPELARYPSTDDVHRAQDAVAERHGRTRDEVLPLVGAAEGFALLHNLSPVRAAIVVPAFTEPAIALSAAGITAHHVVLKPPFVLDTAHVPDDADLVVVGNPTNPTSVLHLREQLLELRRPGRILVVDEAFADWVPGEPQSLADDSLPDVLVLRSLTKTWSLAGLRVGYALGSPDVLARLTVQRAHWPLGTLQLTAIAACCAPRAVAAAAADAVRLTALRAEMVAGLRSVGAEVVDGAAPFVLFNIADADGLRNYLQSKGIAVRRGDTFVGLDARYLRAAVRPEWPVLVAAIAEWAKRGGRR
For B1, the binding [1] was “no binding (tested: 1.0 mg/ml)” and the binding [2] was “no binding”.
